From patent publication US20250129044A1 (priority 2021, published 2025)
For at least one compound, name, drawing or mass did not settle the structure.

Biological target: sodium channel isoforms (Homo sapiens, UniProt P35498)
Format: cell-based
Conditions: area under the sodium current trace, step from −120 mV to 0 mV, HEK cells
Experimental: The sodium channel isoforms of interest are stably expressed in Human Embryonic Kidney Cells and the currents that flow through those channels in response to a depolarizing voltage clamp step from −120 mV to 0 mV are measured in the presence of increasing concentrations of the chemical agents. The area under the sodium current trace which correlates to the magnitude of sodium flux through the cell membrane is used to quantify the effects on gating of the channels. Other parameters that are measured in the assay include the peak current, time constant of open state inactivation and the voltage dependence of steady state inactivation properties. The concentration responses are used to determine potency of each chemical agents effects on modulating the sodium channel isoform gating. Such techniques are known to those skilled in the art, and may be developed, using current technologies, into low or medium throughput assays for evaluating compounds for their ability to modulate sodium channel behaviour.

SMILES: CC(C)c1ncc(C(=O)Nc2c(-c3ccccc3F)ccnc2C2CCC(F)(F)CO2)cn1 (stereo not shown) [Example 25]
- Empirical Emax: ++++ (++++ indicates a value greater than 7.5)
